Test results reported in patent publication US20240124515A1, “ORALLY ACTIVE LEUKEMIA INHIBITORY FACTOR (LIF) ANTAGONISTS FOR THE TREATMENT OF CANCER” (Evestra, Inc., priority 2021, published 2024).
Some entries share one result that the patent states for a list of compounds.

Test system: cancer stem cells (SP)
Experiment: FACS analysis of side population / cancer stem cells (FIG. 7B)
Type: cell-based

How did the “reduction in SP compared to no drug or DTX treated control cells” value turn out when `C#CC(F)(F)[C@]1(O)CCC2C3CCC4=CC(=O)CCC4=C3[C@@H](c3cccc(C#N)c3C)C[C@@]21C` (stereo partly shown) [EC914] was run?
Its value is 40-50%.
